Source: PMC8952208, “Synthesis, Antiplasmodial, and Antileukemia Activity of Dihydroartemisinin–HDAC Inhibitor Hybrids as Multitarget Drugs” (Pharmaceuticals, 2022)

How the values were obtained:
P. falciparum 3D7 = type: cell-based; settings: Selectivity Index = (A2780 IC50)/(P. falciparum IC50)
Protocol: [38, 39] […] After three days of incubation at 37 °C, 5% CO2 and 5% O2 plates were frozen until analyzed by HRP2-ELISA. All compounds were evaluated in duplicate in at least two independent experiments. The IC50 was determined by nonlinear regression analysis of log concentration-response curves using the drc-package v3.0.1 [40] of R v4.0.5..

P. falciparum Dd2 = type: cell-based; settings: Selectivity Index = (A2780 IC50)/(P. falciparum IC50)

Compound | SI A2780/Pf 3D7 (P. falciparum 3D7) | SI A2780/Pf Dd2 (P. falciparum Dd2)
C[C@@H]1CC[C@H]2[C@@H](C)C(SCCCCCC(=O)NO)O[C@@H]3O[C@@]4(C)CC[C@@H]1[C@]32OO4 (stereo partly drawn) [Compound 7b, N-Hydroxy-6-(((3R,5aS,6R,8aS,9R,12S,12aR)-3,6,9-trimethyldecahydro-12H-3,12-epoxy[1,2]dioxepino[4,3-i]isochromen-10-yl)thio)hexanamide] | 292 | 230
C[C@@H]1CC[C@H]2[C@@H](C)C(OCc3ccc(/C=C/C(=O)NO)cc3)O[C@@H]3O[C@@]4(C)CC[C@@H]1[C@]32OO4 (stereo partly drawn) [Compound 7a, (E)-N-Hydroxy-3-(4-((((3R,5aS,6R,8aS,9R,12R,12aR)-3,6,9-trimethyldecahydro-12H-3,12-epoxy[1,2]dioxepino[4,3-i]isochromen-10-yl)oxy)methyl)phenyl)acrylamide] | 750 | 1147
C[C@@H]1CC[C@H]2[C@@H](C)C(OCc3ccc(/C=C/C(=O)O)cc3)O[C@@H]3O[C@@]4(C)CC[C@@H]1[C@]32OO4 (stereo partly drawn) [Compound 6a, (E)-3-(4-((((3R,5aS,6R,8aS,9R,12R,12aR)-3,6,9-Trimethyldecahydro-12H-3,12-epoxy[1,2]dioxepino[4,3-i]isochromen-10-yl)oxy)methyl)phenyl)acrylic acid] | 573 | 583
C[C@H]1[C@H](Sc2ccc(CC(=O)NO)cc2)O[C@@H]2O[C@@]3(C)CC[C@H]4[C@H](C)CC[C@@H]1[C@@]24OO3 [(β)-7e, N-Hydroxy-2-(4-(((3R,5aS,6R,8aS,9R,10S,12S,12aR)-3,6,9-trimethyldecahydro-12H-3,12-epoxy[1,2]dioxepino[4,3-i]isochromen-10-yl)thio)phenyl)acetamide] | 804 | 1306
C[C@H]1[C@H](SCc2ccc(C(=O)NO)cc2)O[C@@H]2O[C@@]3(C)CC[C@H]4[C@H](C)CC[C@@H]1[C@@]24OO3 [(β)-7c, N-Hydroxy-4-((((3R,5aS,6R,8aS,9R,10S,12S,12aR)-3,6,9-trimethyldecahydro-12H-3,12-epoxy[1,2]dioxepino[4,3-i]isochromen-10-yl)thio)methyl)benzamide] | 244 | 275
C[C@@H]1CC[C@H]2[C@@H](C)C(OCc3ccc(/C=C/C(=O)Nc4ccccc4N)cc3)O[C@@H]3O[C@@]4(C)CC[C@@H]1[C@]32OO4 (stereo partly drawn) [Compound 8, (E)-N-(2-Aminophenyl)-3-(4-((((3R,5aS,6R,8aS,9R,12R,12aR)-3,6,9-trimethyldecahydro-12H-3,12-epoxy[1,2]dioxepino[4,3-i]isochromen-10-yl)oxy)methyl)phenyl)acrylamide] | 588 | 588
C[C@H]1[C@@H](SCc2ccc(C(=O)NO)cc2)O[C@@H]2O[C@@]3(C)CC[C@H]4[C@H](C)CC[C@@H]1[C@@]24OO3 [(α)-7c, N-Hydroxy-4-((((3R,5aS,6R,8aS,9R,10R,12S,12aR)-3,6,9-trimethyldecahydro-12H-3,12-epoxy[1,2]dioxepino[4,3-i]isochromen-10-yl)thio)methyl)benzamide] | 333 | 324
C[C@H]1[C@H](OCc2ccc(C(=O)NO)cc2)O[C@@H]2O[C@@]3(C)CC[C@H]4[C@H](C)CC[C@@H]1[C@@]24OO3 [Compound 7d, N-Hydroxy-4-((((3R,5aS,6R,8aS,9R,10R,12R,12aR)-3,6,9-trimethyldecahydro-12H-3,12-epoxy[1,2]dioxepino[4,3-i]isochromen-10-yl)oxy)methyl)benzamide] | 468 | 655
C[C@H]1[C@@H](O)O[C@@H]2O[C@@]3(C)CC[C@H]4[C@H](C)CC[C@@H]1[C@@]24OO3 [DHA, dihydroartemisinin] | 323 | 539
C[C@H]1[C@@H](Sc2ccc(CC(=O)NO)cc2)O[C@@H]2O[C@@]3(C)CC[C@H]4[C@H](C)CC[C@@H]1[C@@]24OO3 [(α)-7e, N-Hydroxy-2-(4-(((3R,5aS,6R,8aS,9R,10R,12S,12aR)-3,6,9-trimethyldecahydro-12H-3,12-epoxy[1,2]dioxepino[4,3-i]isochromen-10-yl)thio)phenyl)acetamide] | 590 | 1017
